Consider one molecule from patent US8003083B2, “Benzylidene malonamide and salt thereof, ultraviolet ray absorbent, and agent for external application to the skin” (Shiseido Company, Ltd., priority 2006, dated 2011).

Data set [1] can be described thus: Photostability test, sunlight exposure. Type of data set: physicochemical. The conditions noted are these: 290-400 nm integrated, after sunlight for two weeks, 80 MJ/m^2; water, 10 ppm, 1 cm. As for the experimental part:
A solution of the ultraviolet absorbent of the present invention was exposed to sunlight for two weeks (sunlight exposure level 80 MJ/m^2) and then the residual ratio and changes in the appearance were investigated and the ultraviolet absorption spectrum was measured (solvent: water, concentration 10 ppm, optical path length 1 cm) by using a spectrophotometer; the ultraviolet absorption spectrum was integrated over a range of 290-400 nm to obtain the area value, which was compared with the value before the sunlight exposure.
Changes in the residual ratio and the area value of the ultraviolet absorption spectrum were evaluated based on the following criteria.
Δ: 70% or more and less than 90% of the value before the sunlight exposure.
X: Less than 70% of the value before the sunlight exposure.

For data set [2], the system named is degree of sunburn after exposure to direct sunlight. The data set is described as follows: Ultraviolet prevention effect, actual use test on a beach in summer. In kind it is in vivo, human. The method, then:
An actual use test was conducted on a beach in summer. The same amount of sample was applied on the left and right halves of panelists' backs. The degree of sunburn after exposure to direct sunlight was evaluated based on the following criteria. The test was conducted with a group of 10 panelists.
Very effective: No or very little sunburn symptoms were observed.
Effective: A mild degree of sunburn symptoms were observed.
Not effective: A strong degree of sunburn symptoms were observed.
⊚: 80% or more of the subjects report “very effective” or “effective.”
◯: 50% or more and less than 80% of the subjects report “very effective” or “effective.”
∇: 30% or more and less than 50% of the subjects report “very effective” or “effective.”
X: Less than 30% of the subjects report “very effective” or “effective.”
(a) lotion and (b) cream were prepared according to the following recipes. For the ultraviolet absorbent, benzilidene malonamide (bis-N,N′-[2-(2-hydroxyethoxy)ethyl]-4-methoxybenzilidene malonamide) of the present invention and, as a Comparison example, a water soluble ultraviolet absorbent sodium 2-hydroxy-4-methoxy-5-sulfoquisonium benzophenone were used.
The water phase and the alcohol phase were separately prepared and then mixed together.
Propylene glycol and the ultraviolet absorbent were dissolved in ion-exchanged water and the temperature was raised to 70° C. and maintained. The other ingredients were mixed, heated and melted, and the temperature was maintained at 70° C. (oil phase). The oil phase was added to the water phase and pre-emulsification was conducted; after a homomixer was used to emulsify the mixture homogeneously, the temperature was cooled down to 30° C. while thorough stirring was maintained.

Regarding `COc1cc(O)c(C(=O)c2ccccc2)cc1S(=O)(=O)[O-].[Na+]` [sodium 2-hydroxy-4-methoxy-5-sulfoxonium benzophenone, reference compound], in data set [1], the “Changes in the area value of the ultraviolet absorption spectrum” value is “◯ (90% or more and less than 95% of the value before the sunlight exposure.)”. In addition, the Ultraviolet prevention effect result in data set [2] ((a) Lotion, blend ratio 1, 10 panelists) is reported as “Δ”; in data set [2] ((a) Lotion, blend ratio 5, 10 panelists), “Δ”; in data set [2] ((b) Cream, blend ratio 1, 10 panelists) it was “Δ”; in data set [2] ((b) Cream, blend ratio 5, 10 panelists) it was “Δ”.
